Laboratory results from patent publication US20210095265A1 (WISCONSIN ALUMNI RESEARCH FOUNDATION, published 2021).
Results are given in words; binding and its absence hold for the method and conditions named. Binding seen in cells or lysates may run through a third protein. Some entries that bind do so weakly or less than the wild type.

Molecular target: T1, Saro_2873 polypeptide from Novosphingobium aromaticivorans (subunit of BaeA), co-expressed with Saro_2872 in E. coli (Novosphingobium aromaticivorans)
T1 sequence: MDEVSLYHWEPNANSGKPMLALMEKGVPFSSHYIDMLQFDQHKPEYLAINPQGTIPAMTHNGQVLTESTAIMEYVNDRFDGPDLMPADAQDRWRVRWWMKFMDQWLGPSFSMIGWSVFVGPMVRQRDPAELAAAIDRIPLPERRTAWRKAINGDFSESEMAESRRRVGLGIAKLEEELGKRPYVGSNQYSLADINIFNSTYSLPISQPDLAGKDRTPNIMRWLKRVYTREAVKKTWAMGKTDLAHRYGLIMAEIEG
Assay: co-purification on Ni2+-NTA with a His8-tag on only one polypeptide; gel permeation chromatography

B1: Saro_2872 polypeptide from Novosphingobium aromaticivorans (subunit of BaeA), co-expressed with Saro_2873 in E. coli (enzyme)
chain: MSALLYHGEPNGASLTVLAALAETGLDIECRRIDLLAGERHSLPGIVDPVALDLSIEGEGPVLVIDGEAMTESVFLAQYLDEAAGGVGLQPTDAYARWEMMMWCRQITERLSPAAALLGNLATSQSAIAAIPAEDFAILAARIVSDDLRERWQALNDDAVNAAQVADSETKVAAAVDRCEKQLGDGREWLMGTFSIADLVTYSWLAGMEPLRPAAFADAPLVKAWLARTAARPCVQAALARATISEPLRAWAPGPEINRWG
notes: Co-expressed with Saro_2873 from one pVP302K vector; In the H2872 construct Saro_2872 lacks its native start codon; also called Saro_2872 subunit; first polypeptide of BaeA
- binding: binds
